Measurements taken from the supplement of paper PMC12823440, “Inhibitors supercharge kinase turnover through native proteolytic circuits” (Nature, 2025).
Some of the results follow. The calls rarely recur for the same compound in another form.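 Kinases were expressed as nanoluciferase fusions in K562 cells and luminescence was read every 4 h between 2 and 18 h as percent of control, DMSO set to 100% and a positive control to 0%. A time point counts as decreased when the signal drops significantly (2 sigma). The hit call is the authors' own, does not follow from the count of time points alone, and its rule is not shown.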

By UniProt entry, the sequences of proteins in these tests, tags left out. Where a name states a change or a piece, a line headed by the entry shows the natural chain unless it says otherwise.
UniProt Q13131: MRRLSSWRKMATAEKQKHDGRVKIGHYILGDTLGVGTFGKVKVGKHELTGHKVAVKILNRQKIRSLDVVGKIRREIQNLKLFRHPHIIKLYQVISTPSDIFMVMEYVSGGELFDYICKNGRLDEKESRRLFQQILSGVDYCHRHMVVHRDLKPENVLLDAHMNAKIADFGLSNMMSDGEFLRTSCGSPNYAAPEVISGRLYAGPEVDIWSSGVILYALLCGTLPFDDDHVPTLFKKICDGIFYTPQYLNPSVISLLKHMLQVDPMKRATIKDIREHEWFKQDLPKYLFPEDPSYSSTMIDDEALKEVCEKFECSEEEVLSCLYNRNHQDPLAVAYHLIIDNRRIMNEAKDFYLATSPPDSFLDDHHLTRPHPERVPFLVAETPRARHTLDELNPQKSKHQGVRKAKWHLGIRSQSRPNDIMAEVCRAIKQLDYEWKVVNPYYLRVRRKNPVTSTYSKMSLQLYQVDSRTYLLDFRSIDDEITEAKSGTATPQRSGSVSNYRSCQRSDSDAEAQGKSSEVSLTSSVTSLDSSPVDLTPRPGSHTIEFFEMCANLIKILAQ

target: PRKAA1 (UniProt Q13131); assay: number of time points (of 5) at which kinase-Nluc abundance scored as decreased, DMSO-normalised (count); higher = more persistent destabilization; conditions: K562; 2-18 h

SMILES	number of time points
O=Nc1c(-c2c(O)[nH]c3cc(Br)ccc23)[nH]c2ccccc12 [GSK 3 Inhibitor IX] (2.5 µM)	0
Cn1c2cc([S+](C)[O-])sc2c2cnn(Cc3cccc(N)c3)c(=O)c21 (stereo unspecified) (2.5 µM)	0
Cc1cc(-n2c(=O)ccc3c[nH]c4nccc-4c32)ccc1F (10 µM)	0
CCCn1/c(=N/C(=O)c2cccc(C(N)=O)c2)[nH]c2ccccc21 [Takinib] (10 µM)	0
CO[C@H]1C[C@@H]2CC[C@@H](C)[C@@](O)(O2)C(=O)C(=O)N2CCCC[C@H]2C(=O)O[C@H]([C@H](C)C[C@@H]2CC[C@@H](OCCO)[C@H](OC)C2)CC(=O)[C@H](C)/C=C(\C)[C@@H](O)[C@@H](OC)C(=O)[C@H](C)C[C@H](C)/C=C/C=C/C=C/1C [Everolimus] (10 µM)	0
Cc1cccc(-c2[nH]ncc2-c2ccnc3ccccc23)n1 (10 µM)	0
CC1(N)CCN(c2cccnc2NC(=O)c2nc(-c3ncccc3C(F)(F)F)cnc2N)CC1 [Darovasertib] (10 µM)	0
COc1cc2c(cc1Nc1ncc(C(N)=O)c(Nc3c(F)cccc3C(F)(F)F)n1)CN(C)CC2 (2.5 µM)	0
COc1cc2ncnc(Nc3ccc(O)c(Br)c3)c2cc1OC (10 µM)	0
Nc1nc2c(nc(Br)n2[C@@H]2O[C@@H]3COP(=O)(O)O[C@H]3[C@H]2O)c(=O)[nH]1 [8-Bromo-cGMP (sodium)] (10 µM)	0
O=c1c2c([nH]n1-c1nc3ccccc3s1)CCCC2 (10 µM)	0

Rewritten with each value named: 2 of the compounds above
Cc1cc(-n2c(=O)ccc3c[nH]c4nccc-4c32)ccc1F (10 µM)
  number of time points: 0
COc1cc2ncnc(Nc3ccc(O)c(Br)c3)c2cc1OC (10 µM)
  number of time points: 0
